In the supplement of paper PMC7661543:
± gives the standard deviation of the averaged measurements. The effect of the compound repeats well; differences between the knockouts mostly do not.

Tested on: MDA-MB-231
Experiment: relative cell number vs DMSO control (72 h) (% of DMSO); higher = less growth inhibition (more cells)
Method: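 QMAP-Seq: a pool of 5 breast cancer cell lines (ZR-75-1, SKBR3, HCC-38, MDA-MB-231, BT-20), each carrying 12 doxycycline-inducible Cas9 sgRNA perturbations (11 knockouts plus non-targeting sgNT), was treated with compounds for 72 h at four 10-fold doses (10 nM-10 uM or 1 nM-1 uM range). Barcodes were amplified and sequenced, and cell number was interpolated from 293T spike-in standard curves. The result is expressed as % of the median of DMSO wells. Two biological replicates.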

Cc1ccccc1-n1c(Cn2cnc3c(N)ncnc32)nc2cccc(C)c2c1=O
Conditions | relative cell number
sgRNA knockout: sgATF3, 10 nM | 134 ± 20
sgRNA knockout: sgATF3, 100 nM | 144 ± 14
sgRNA knockout: sgATF3, 1000 nM | 112 ± 12
sgRNA knockout: sgATF3, 10000 nM | 126 ± 28
sgRNA knockout: sgATF4, 10 nM | 154 ± 9.7
sgRNA knockout: sgATF4, 100 nM | 159 ± 46
sgRNA knockout: sgATF4, 1000 nM | 144 ± 61
sgRNA knockout: sgATF4, 10000 nM | 129 ± 9.1
sgRNA knockout: sgATF6, 10 nM | 103 ± 16
sgRNA knockout: sgATF6, 100 nM | 114 ± 28
sgRNA knockout: sgATF6, 1000 nM | 110 ± 14
sgRNA knockout: sgATF6, 10000 nM | 110 ± 33
sgRNA knockout: sgATG7, 10 nM | 121 ± 0.61
sgRNA knockout: sgATG7, 100 nM | 114 ± 4.4
sgRNA knockout: sgATG7, 1000 nM | 117 ± 13
sgRNA knockout: sgATG7, 10000 nM | 106 ± 22
sgRNA knockout: sgERN1, 10 nM | 113 ± 8.4
sgRNA knockout: sgERN1, 100 nM | 117 ± 5.1
sgRNA knockout: sgERN1, 1000 nM | 102 ± 12
sgRNA knockout: sgERN1, 10000 nM | 98.3 ± 24
sgRNA knockout: sgHSF1, 10 nM | 87.3 ± 6.5
sgRNA knockout: sgHSF1, 100 nM | 126 ± 27
sgRNA knockout: sgHSF1, 1000 nM | 109 ± 1.4
sgRNA knockout: sgHSF1, 10000 nM | 103 ± 4
sgRNA knockout: sgHSF2, 10 nM | 98.3 ± 24
sgRNA knockout: sgHSF2, 100 nM | 143.3 ± 0.77
sgRNA knockout: sgHSF2, 1000 nM | 107 ± 26
sgRNA knockout: sgHSF2, 10000 nM | 114 ± 0.13
sgRNA knockout: sgKEAP1, 10 nM | 94.1 ± 17
sgRNA knockout: sgKEAP1, 100 nM | 123 ± 2.8
sgRNA knockout: sgKEAP1, 1000 nM | 93.7 ± 26
sgRNA knockout: sgKEAP1, 10000 nM | 105 ± 3.3
sgRNA knockout: sgNFE2L2, 10 nM | 110 ± 6.4
sgRNA knockout: sgNFE2L2, 100 nM | 137 ± 10
sgRNA knockout: sgNFE2L2, 1000 nM | 94.2 ± 21
sgRNA knockout: sgNFE2L2, 10000 nM | 94.9 ± 10
sgRNA knockout: sgSLC35F2, 10 nM | 132 ± 20
sgRNA knockout: sgSLC35F2, 100 nM | 103 ± 21
sgRNA knockout: sgSLC35F2, 1000 nM | 110 ± 24
sgRNA knockout: sgSLC35F2, 10000 nM | 132 ± 15
sgRNA knockout: sgXBP1, 10 nM | 102 ± 3.2
sgRNA knockout: sgXBP1, 100 nM | 114 ± 24
sgRNA knockout: sgXBP1, 1000 nM | 96.6 ± 19
sgRNA knockout: sgXBP1, 10000 nM | 105 ± 22

O=c1ncccn1[C@@H]1O[C@H](CO)[C@@H](O)[C@H]1O [Zebularine]
Conditions | relative cell number
sgRNA knockout: sgATF3, 10 nM | 111 ± 1.8
sgRNA knockout: sgATF3, 100 nM | 96.9 ± 25
sgRNA knockout: sgATF3, 1000 nM | 82 ± 27
sgRNA knockout: sgATF3, 10000 nM | 118 ± 8.9
sgRNA knockout: sgATF4, 10 nM | 100 ± 34
sgRNA knockout: sgATF4, 100 nM | 62.1 ± 28
sgRNA knockout: sgATF4, 1000 nM | 86.1 ± 6.1
sgRNA knockout: sgATF4, 10000 nM | 92.1 ± 56
sgRNA knockout: sgATF6, 10 nM | 99.7 ± 25
sgRNA knockout: sgATF6, 100 nM | 119 ± 6.4
sgRNA knockout: sgATF6, 1000 nM | 126 ± 3.8
sgRNA knockout: sgATF6, 10000 nM | 114 ± 11
sgRNA knockout: sgATG7, 10 nM | 112 ± 11
sgRNA knockout: sgATG7, 100 nM | 116 ± 1.3
sgRNA knockout: sgATG7, 1000 nM | 102 ± 14
sgRNA knockout: sgATG7, 10000 nM | 108 ± 7.3
sgRNA knockout: sgERN1, 10 nM | 108 ± 12
sgRNA knockout: sgERN1, 100 nM | 97.5 ± 2.4
sgRNA knockout: sgERN1, 1000 nM | 100 ± 4
sgRNA knockout: sgERN1, 10000 nM | 115 ± 9.6
sgRNA knockout: sgHSF1, 10 nM | 115 ± 27
sgRNA knockout: sgHSF1, 100 nM | 130 ± 25
sgRNA knockout: sgHSF1, 1000 nM | 79 ± 27
sgRNA knockout: sgHSF1, 10000 nM | 103 ± 4
sgRNA knockout: sgHSF2, 10 nM | 105 ± 2.6
sgRNA knockout: sgHSF2, 100 nM | 85.4 ± 7.6
sgRNA knockout: sgHSF2, 1000 nM | 94.4 ± 28
sgRNA knockout: sgHSF2, 10000 nM | 102 ± 6.8
sgRNA knockout: sgKEAP1, 10 nM | 104 ± 10
sgRNA knockout: sgKEAP1, 100 nM | 109 ± 0.88
sgRNA knockout: sgKEAP1, 1000 nM | 91.7 ± 9.7
sgRNA knockout: sgKEAP1, 10000 nM | 84.3 ± 25
sgRNA knockout: sgNFE2L2, 10 nM | 128 ± 52
sgRNA knockout: sgNFE2L2, 100 nM | 91.2 ± 5.8
sgRNA knockout: sgNFE2L2, 1000 nM | 95.7 ± 22
sgRNA knockout: sgNFE2L2, 10000 nM | 101 ± 17
sgRNA knockout: sgSLC35F2, 10 nM | 99.6 ± 12
sgRNA knockout: sgSLC35F2, 100 nM | 89.8 ± 24
sgRNA knockout: sgSLC35F2, 1000 nM | 101 ± 8.4
sgRNA knockout: sgSLC35F2, 10000 nM | 106 ± 1.4
sgRNA knockout: sgXBP1, 10 nM | 125 ± 12
sgRNA knockout: sgXBP1, 100 nM | 98.9 ± 20
sgRNA knockout: sgXBP1, 1000 nM | 90.6 ± 21
sgRNA knockout: sgXBP1, 10000 nM | 92.3 ± 7.5

Nc1ncn([C@H]2C[C@H](O)[C@@H](CO)O2)c(=O)n1 [Decitabine]
Conditions | relative cell number
sgRNA knockout: sgATF3, 10 nM | 128 ± 40
sgRNA knockout: sgATF3, 100 nM | 95.3 ± 12
sgRNA knockout: sgATF3, 1000 nM | 41 ± 6.1
sgRNA knockout: sgATF3, 10000 nM | 26.3 ± 3.9
sgRNA knockout: sgATF4, 10 nM | 89.2 ± 24
sgRNA knockout: sgATF4, 100 nM | 88.9 ± 32
sgRNA knockout: sgATF4, 1000 nM | 47.2 ± 17
sgRNA knockout: sgATF4, 10000 nM | 15.2 ± 5.6
sgRNA knockout: sgATF6, 10 nM | 90.5 ± 1.9
sgRNA knockout: sgATF6, 100 nM | 81.1 ± 20
sgRNA knockout: sgATF6, 1000 nM | 51.2 ± 9.6
sgRNA knockout: sgATF6, 10000 nM | 26.7 ± 9.5
sgRNA knockout: sgATG7, 10 nM | 91.5 ± 1.4
sgRNA knockout: sgATG7, 100 nM | 80 ± 6.2
sgRNA knockout: sgATG7, 1000 nM | 38.6 ± 5.3
sgRNA knockout: sgATG7, 10000 nM | 20.7 ± 6
sgRNA knockout: sgERN1, 10 nM | 94.2 ± 1.9
sgRNA knockout: sgERN1, 100 nM | 73.3 ± 12
sgRNA knockout: sgERN1, 1000 nM | 44.8 ± 0.21
sgRNA knockout: sgERN1, 10000 nM | 16.9 ± 2.1
sgRNA knockout: sgHSF1, 10 nM | 81.7 ± 10
sgRNA knockout: sgHSF1, 100 nM | 79.9 ± 11
sgRNA knockout: sgHSF1, 1000 nM | 40.2 ± 15
sgRNA knockout: sgHSF1, 10000 nM | 24.8 ± 9.9
sgRNA knockout: sgHSF2, 10 nM | 116.6 ± 0.72
sgRNA knockout: sgHSF2, 100 nM | 87.6 ± 24
sgRNA knockout: sgHSF2, 1000 nM | 36.5 ± 11
sgRNA knockout: sgHSF2, 10000 nM | 18.9 ± 3.8
sgRNA knockout: sgKEAP1, 10 nM | 103 ± 46
sgRNA knockout: sgKEAP1, 100 nM | 93.5 ± 11
sgRNA knockout: sgKEAP1, 1000 nM | 51.8 ± 3.5
sgRNA knockout: sgKEAP1, 10000 nM | 26.41 ± 0.19
sgRNA knockout: sgNFE2L2, 10 nM | 104 ± 34
sgRNA knockout: sgNFE2L2, 100 nM | 77.8 ± 10
sgRNA knockout: sgNFE2L2, 1000 nM | 40.4 ± 6.5
sgRNA knockout: sgNFE2L2, 10000 nM | 23.5 ± 0.48
sgRNA knockout: sgSLC35F2, 10 nM | 96.9 ± 29
sgRNA knockout: sgSLC35F2, 100 nM | 80.4 ± 18
sgRNA knockout: sgSLC35F2, 1000 nM | 31 ± 4.3
sgRNA knockout: sgSLC35F2, 10000 nM | 15.1 ± 3.6
sgRNA knockout: sgXBP1, 10 nM | 99.6 ± 1.6
sgRNA knockout: sgXBP1, 100 nM | 88.4 ± 7.5
sgRNA knockout: sgXBP1, 1000 nM | 35.7 ± 7
sgRNA knockout: sgXBP1, 10000 nM | 21.9 ± 3.1
